Earlier results in US7220434B2, “Dual-release compositions of a cyclooxygenase-2 inhibitor” (Pharmacia Corporation (of Pfizer, Inc.), priority 2000, dated 2007).

Conditions: rat, oral; nanoparticulate (average particle size 240–300 nm) versus microparticulate (20–30 μm) dispersion

COc1ccc2cc([C@H](C)C(=O)O)ccc2c1 [naproxen]
apparent rate of absorption: higher
